Measured values as given in patent publication US8216786B2, “Genetic polymorphisms associated with cardiovascular diseases, methods of detection and uses thereof” (Celera Corporation, priority 2008, dated 2012).
The source gives many values for each of these; only a part stands here.

Tested on: individuals who have previously had an MI
Test: CARE trial: effect of pravastatin vs placebo on coronary events (endpt1, rmi) by SNP genotype subgroup
Assay type: in vivo, human
Conditions: endpt1
Protocol: In Tables 21-22, the column labeled “Endpoint” indicates whether the endpoint that was analyzed was the primary endpoint of the CARE study (a composite endpoint of fatal coronary event or nonfatal MI, and identified as “endpt1”) or a composite endpoint of confirmed fatal or nonfatal MI (identified as “rmi”). […] As used herein, the term “benefit” (with respect to a preventive or therapeutic drug treatment) is defined as achieving a reduced risk for a disease that the drug is intended to treat or prevent (e.g., CVD such as CHD, particularly MI, or hypertension) by administering the drug treatment, compared with the risk for the disease in the absence of receiving the drug treatment (or receiving a placebo in lieu of the drug treatment) for the same genotype. […] J. […] (1996) New England Journal of Medicine 335: 1001-1009. […] A well-documented MI was one of the enrollment criteria for entry into the CARE study. Patients were enrolled in the CARE trial from 80 participating study centers. […] For the study of CARE described in this Example and shown in Tables 21-22, two endpoints were investigated: the primary endpoint of CARE (a composite endpoint of fatal coronary event or nonfatal MI, and identified as “endpt1” in the Endpoint column of Tables 21-22) and a composite endpoint of confirmed fatal or nonfatal MI (identified as “rmi” in the Endpoint column of Tables 21-22). […] HR stands for Hazard Ratio, which is a concept similar to Odds Ratio (OR). The HR in event-free survival analysis is the effect of an explanatory variable on the hazard or risk of an event. […] In Table 21, p-interaction values were calculated. An interaction (or effect modification) is formed when a third variable modifies the relation between an exposure and outcome. […] Genotype and drug interaction is present when the effect of statins (incidence rate of disease in statin-treated group, as compared to placebo) differs in patients with different genotypes.

[1] = hCV2276802 rs381418 GBA, Strata CA + CC
[2] = hCV2310409 45474794-rs6 APOA4, Strata AT + AA
[3] = hCV2310409 45474794-rs6 APOA4, Strata TT
[4] = hCV2485037 rs4904448 SPATA7, Strata AA
[5] = hCV2485037 rs4904448 SPATA7, Strata AG + GG
[6] = hCV2503034 rs1132356 BAIAP3, Strata AA
[7] = hCV2503034 rs1132356 BAIAP3, Strata AC
[8] = hCV2503034 rs1132356 BAIAP3, Strata CC
[9] = hCV2531086 rs10406069 CD22, Strata AA
[10] = hCV2531086 rs10406069 CD22, Strata AG + GG
[11] = hCV2536595 rs704 VTN, Strata AG + AA
[12] = hCV2536595 rs704 VTN, Strata GG
[13] = hCV2554615 rs2522057 LOC441108, strata CG + CC
[14] = hCV2554615 rs2522057 LOC441108, strata GG
[15] = hCV2554721 rs7315519 RPH3A, strata AG + AA
[16] = hCV2554721 rs7315519 RPH3A, strata GG
[17] = hCV2557331 rs233716 RPH3A, strata CC
[18] = hCV2557331 rs233716 RPH3A, strata CT + TT
[19] = hCV2632070 rs714052 BAZ1B, strata AA
[20] = hCV2632070 rs714052 BAZ1B, strata AG + GG
[21] = hCV2632498 rs3812316 MLXIPL, strata CC
[22] = hCV2632498 rs3812316 MLXIPL, strata CG + GG
[23] = hCV2632544 rs17145738, strata CC
[24] = hCV2632544 rs17145738, strata CT + TT
[25] = hCV2762168 rs3939286, strata CC
[26] = hCV2762168 rs3939286, strata TC + TT
[27] = hCV2781953 rs6021931, strata GT + GG
[28] = hCV2781953 rs6021931, strata TT
[29] = hCV3168675 rs469930, strata GA + GG
[30] = hCV3170445 rs272893 SLC22A4, strata CC
[31] = hCV3170445 rs272893 SLC22A4, strata TC + TT
[32] = hCV3170459 rs1050152 SLC22A4, strata CT + CC
[33] = hCV3170459 rs1050152 SLC22A4, strata TT
[34] = hCV3242919 rs486394, strata AC + AA
[35] = hCV3242952 rs2000571, strata AG + AA
[36] = hCV3242952 rs2000571, strata GG
[37] = hCV7501549 rs1467412 ATP9A, strata CT + CC
[38] = hCV7501549 rs1467412 ATP9A, strata TT
[39] = hCV7537517 rs1501908, strata CG + CC
[40] = hCV7537517 rs1501908, strata GG
[41] = hCV7910239 rs1541296 FVT1, strata AG + AA
[42] = hCV7910239 rs1541296 FVT1, strata GG
[43] = hCV8369472 rs1447351 MTNR1B, strata AA
[44] = hCV8369472 rs1447351 MTNR1B, strata GA
[45] = hCV8369472 rs1447351 MTNR1B, strata GG
[46] = hCV8420416 rs719909 PANK1, strata CT + CC
[47] = hCV8420416 rs719909 PANK1, strata TT
[48] = hCV8785824 rs1412426, strata AA
[49] = hCV8785824 rs1412426, strata AC + CC
[50] = hCV8785827 rs992969 IL33, strata AG + AA

CC[C@H](C)C(=O)O[C@H]1C[C@H](O)C=C2C=C[C@H](C)[C@H](CC[C@@H](O)C[C@@H](O)CC(=O)O)[C@H]21 [pravastatin]
NONEVENT (Pravastatin arm) (hCV2276802 rs381418 GBA, Strata AA): 354
EVENTS (Pravastatin arm) [1]: 100
NONEVENT (Pravastatin arm) [1]: 935
EVENTS (Pravastatin arm) [2]: 56
NONEVENT (Pravastatin arm) [2]: 459
EVENTS (Pravastatin arm) [3]: 76
NONEVENT (Pravastatin arm) [3]: 825
EVENTS (Pravastatin arm) [4]: 31
NONEVENT (Pravastatin arm) [4]: 228
EVENTS (Pravastatin arm) [5]: 101
NONEVENT (Pravastatin arm) [5]: 1032
EVENTS (Pravastatin arm) [6]: 0
NONEVENT (Pravastatin arm) [6]: 16
EVENTS (Pravastatin arm) [7]: 34
NONEVENT (Pravastatin arm) [7]: 258
EVENTS (Pravastatin arm) [8]: 97
NONEVENT (Pravastatin arm) [8]: 1010
EVENTS (Pravastatin arm) [9]: 7
NONEVENT (Pravastatin arm) [9]: 52
EVENTS (Pravastatin arm) [10]: 124
NONEVENT (Pravastatin arm) [10]: 1236
EVENTS (Pravastatin arm) [11]: 89
NONEVENT (Pravastatin arm) [11]: 940
EVENTS (Pravastatin arm) [12]: 44
NONEVENT (Pravastatin arm) [12]: 351
EVENTS (Pravastatin arm) [13]: 107
NONEVENT (Pravastatin arm) [13]: 1046
EVENTS (Pravastatin arm) [14]: 29
NONEVENT (Pravastatin arm) [14]: 216
EVENTS (Pravastatin arm) [15]: 84
NONEVENT (Pravastatin arm) [15]: 911
EVENTS (Pravastatin arm) [16]: 52
NONEVENT (Pravastatin arm) [16]: 355
EVENTS (Pravastatin arm) [17]: 18
NONEVENT (Pravastatin arm) [17]: 235
EVENTS (Pravastatin arm) [18]: 118
NONEVENT (Pravastatin arm) [18]: 1029
EVENTS (Pravastatin arm) [19]: 96
NONEVENT (Pravastatin arm) [19]: 974
EVENTS (Pravastatin arm) [20]: 40
NONEVENT (Pravastatin arm) [20]: 289
EVENTS (Pravastatin arm) [21]: 96
NONEVENT (Pravastatin arm) [21]: 969
EVENTS (Pravastatin arm) [22]: 40
NONEVENT (Pravastatin arm) [22]: 297
EVENTS (Pravastatin arm) [23]: 95
NONEVENT (Pravastatin arm) [23]: 983
EVENTS (Pravastatin arm) [24]: 41
NONEVENT (Pravastatin arm) [24]: 283
EVENTS (Pravastatin arm) [25]: 74
NONEVENT (Pravastatin arm) [25]: 673
EVENTS (Pravastatin arm) [26]: 62
NONEVENT (Pravastatin arm) [26]: 592
EVENTS (Pravastatin arm) [27]: 127
NONEVENT (Pravastatin arm) [27]: 1214
EVENTS (Pravastatin arm) [28]: 9
NONEVENT (Pravastatin arm) [28]: 49
EVENTS (Pravastatin arm) (hCV3168675 rs469930, strata AA): 59
NONEVENT (Pravastatin arm) (hCV3168675 rs469930, strata AA): 499
EVENTS (Pravastatin arm) [29]: 77
NONEVENT (Pravastatin arm) [29]: 766
EVENTS (Pravastatin arm) [30]: 55
NONEVENT (Pravastatin arm) [30]: 487
EVENTS (Pravastatin arm) [31]: 81
NONEVENT (Pravastatin arm) [31]: 779
EVENTS (Pravastatin arm) [32]: 105
NONEVENT (Pravastatin arm) [32]: 1038
EVENTS (Pravastatin arm) [33]: 31
NONEVENT (Pravastatin arm) [33]: 223
EVENTS (Pravastatin arm) [34]: 120
NONEVENT (Pravastatin arm) [34]: 1158
EVENTS (Pravastatin arm) (hCV3242919 rs486394, strata CC): 16
NONEVENT (Pravastatin arm) (hCV3242919 rs486394, strata CC): 104
EVENTS (Pravastatin arm) [35]: 42
NONEVENT (Pravastatin arm) [35]: 464
EVENTS (Pravastatin arm) [36]: 94
NONEVENT (Pravastatin arm) [36]: 799
EVENTS (Pravastatin arm) [37]: 93
NONEVENT (Pravastatin arm) [37]: 947
EVENTS (Pravastatin arm) [38]: 43
NONEVENT (Pravastatin arm) [38]: 319
EVENTS (Pravastatin arm) [39]: 117
NONEVENT (Pravastatin arm) [39]: 1087
EVENTS (Pravastatin arm) [40]: 19
NONEVENT (Pravastatin arm) [40]: 175
EVENTS (Pravastatin arm) [41]: 118
NONEVENT (Pravastatin arm) [41]: 1111
EVENTS (Pravastatin arm) [42]: 18
NONEVENT (Pravastatin arm) [42]: 147
EVENTS (Pravastatin arm) [43]: 29
NONEVENT (Pravastatin arm) [43]: 330
EVENTS (Pravastatin arm) [44]: 65
NONEVENT (Pravastatin arm) [44]: 586
EVENTS (Pravastatin arm) [45]: 42
NONEVENT (Pravastatin arm) [45]: 347
EVENTS (Pravastatin arm) [46]: 131
NONEVENT (Pravastatin arm) [46]: 1236
EVENTS (Pravastatin arm) [47]: 5
NONEVENT (Pravastatin arm) [47]: 26
EVENTS (Pravastatin arm) [48]: 8
NONEVENT (Pravastatin arm) [48]: 127
EVENTS (Pravastatin arm) [49]: 128
NONEVENT (Pravastatin arm) [49]: 1137
EVENTS (Pravastatin arm) [50]: 61
NONEVENT (Pravastatin arm) [50]: 591
